Experimental data published in publication PMC9638019, “The archetypal gene transfer agent RcGTA is regulated via direct interaction with the enigmatic RNA polymerase omega subunit”.

Experiments:
[1] = target: T25-GafA-C^221–382 (R. capsulatus); assay: two-hybrid; bacterial adenylate cyclase two-hybrid (T18 and T25 fusions) in E. coli BTH101, 30°C, read by β-galactosidase assay (ONPG, Miller units)
[2] = target: T25-GafA-N^1–226 (R. capsulatus); assay: as above
[3] = target: T25-GafA-Cen2 (amino acids 87–212) (R. capsulatus); assay: as above
T25-GafA (R. capsulatus) = assay: as above
[4] = target: T25-GafA-CenN (amino acids 87–226) (R. capsulatus); assay: as above
[5] = target: T25-GafA-Cx^87–382 (R. capsulatus); assay: as above
[6] = target: MBP-GafA-Cx^87–382 (R. capsulatus); assay: pull-down; MBP-tagged GafA protein held on amylose magnetic beads as bait, 2 mg/ml H6-RpoZ in solution as prey, 2 h at 4°C, 200 mM NaCl, 20 mM Tris, 1 mM EDTA, pH 7.4; washes with 0.05% Tween 20; eluted with 10 mM maltose; stained SDS-PAGE; both purified
[7] = target: Maltose Binding Protein-GafA fusion protein (R. capsulatus); assay: as above

B1: T18-Rpo-ω (protein, UniProt D5AS20 1-117)
chain: MARVTVEDCVDKVPNRFELVMLAAHRAREVAAGAPITVERDNDKNPVVALREIADETQLADDLRERLIESNQTQIEVDEPEEDAMALLMSGEIDRPRVDDMDEERMLRALMDAQGRD
binding [1]: no binding
binding [2]: binds
binding [3]: binds
binding (T25-GafA (R. capsulatus)): binds
binding [4]: binds
binding [5]: binds

B2: H6-Rpo-ω (protein, UniProt D5AS20 1-117)
chain: B1 chain
binding [6]: binds
binding [7]: binds

B3: T18-Rpo-α (protein, UniProt D5AM21 1-338)
chain: MIHKNWAELIKPTQLEIKAGNDPQRQATVIAEPLERGFGLTLGNALRRVLMSSLQGAAITSVQIDNVLHEFSSVAGVREDVTDIILNLKGISLKMDVEGPKRLSISAKGPRVVTGADISESMGIEVLNKDHVICHLDDGADVFMELTVNTGKGYVAADKNRPEDAPIGLIPIDAIYSPVKKVAYDVQPTREGQVLDYDKLTMKIETDGSLTPEDAVAYAARILQDQLSIFVNFEEPESASKTDADDGLEFNPLLLKKVDELELSVRSANCLKNDNIVYIGDLIQKTEAEMLRTPNFGRKSLNEIKEVLSSMGLHLGMEVEDWPPENIEDLAKRFEDQF
binding (T25-GafA (R. capsulatus)): no binding

No constants are given. Whether binding was seen depends on the method and setting. For part of these data: Binding can be weak; no strength is given.
